From article PMC11405407
Read-outs that look alike come from different tables or passages of the source. No constants are given. Whether binding was seen depends on the method and setting. In cells and extracts the contact can be indirect. Some entries that bind do so weakly or less than the wild type. For part of these data: Tags and fused reporters may be left off the sequences shown.

Chains of the proteins cited; added tags and fusions are not shown.
UniProt Q92831: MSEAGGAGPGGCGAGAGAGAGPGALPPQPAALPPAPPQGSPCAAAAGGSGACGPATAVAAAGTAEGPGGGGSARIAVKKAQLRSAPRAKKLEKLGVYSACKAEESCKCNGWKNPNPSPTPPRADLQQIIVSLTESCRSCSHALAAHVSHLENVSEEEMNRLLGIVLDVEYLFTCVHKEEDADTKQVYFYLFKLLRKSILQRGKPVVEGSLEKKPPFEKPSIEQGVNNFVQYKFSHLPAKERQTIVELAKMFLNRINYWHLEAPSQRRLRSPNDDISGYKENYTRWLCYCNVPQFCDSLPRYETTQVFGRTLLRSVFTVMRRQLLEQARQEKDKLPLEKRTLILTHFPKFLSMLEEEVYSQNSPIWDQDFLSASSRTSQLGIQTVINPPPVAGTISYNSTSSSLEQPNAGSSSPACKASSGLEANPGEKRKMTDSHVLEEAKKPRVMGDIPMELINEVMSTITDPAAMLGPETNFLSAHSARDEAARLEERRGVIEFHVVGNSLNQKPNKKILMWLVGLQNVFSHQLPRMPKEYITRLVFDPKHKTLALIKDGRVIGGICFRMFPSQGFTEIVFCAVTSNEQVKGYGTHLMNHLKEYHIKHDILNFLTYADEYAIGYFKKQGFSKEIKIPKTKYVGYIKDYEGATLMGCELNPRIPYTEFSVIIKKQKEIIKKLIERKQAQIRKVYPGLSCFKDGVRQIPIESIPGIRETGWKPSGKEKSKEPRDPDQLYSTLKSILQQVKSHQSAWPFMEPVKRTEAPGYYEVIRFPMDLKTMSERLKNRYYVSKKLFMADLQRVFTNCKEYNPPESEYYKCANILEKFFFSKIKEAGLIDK

Tests used:
[1] = target: Myc-tagged SNRNP200 (human) (UniProt O75643); test: co-IP; HEK293T cells transfected with tagged plasmids, IP with anti-FLAG or anti-Myc-Tag overnight at 4 °C and protein A/G magnetic beads, immunoblot; cells in 2.5 mM or 25 mM glucose, with or without TSA, where indicated
[2] = target: SNRNP200 (endogenous) (human (endogenous in MDA-MB-231 and BT-549)) (UniProt O75643); test: co-IP; endogenous IP in MPS2 cells (BT-549 treated with glucose at the indicated concentrations), immunoblot
[3] = target: SNRNP200 (endogenous) (human (endogenous in MDA-MB-231 and BT-549)) (UniProt O75643); test: as above; remark: listed apart in the source
[4] = target: Myc-tagged SNRNP200 (human) (UniProt O75643); test: co-IP; HEK293T cells transfected with tagged plasmids, IP with anti-FLAG or anti-Myc-Tag overnight at 4 °C and protein A/G magnetic beads, immunoblot; cells in 2.5 mM or 25 mM glucose, with or without TSA, where indicated; remark: listed apart in the source

Row | binding [1] | binding [2] | Molecule | other results
1 | binds | – | Flag-tagged PCAF (from UniProt Q92831 1-832) (enzyme) | –
2 | – | binds | HDAC5 (endogenous) (from UniProt Q9UQL6 1-1122) (enzyme) | –
3 | binds | – | HDAC5-FLAG (overexpressed histone deacetylase 5) (from UniProt Q9UQL6 1-1122) (enzyme) | –
4 | – | binds | PCAF (endogenous) (from UniProt Q92831 1-832) (enzyme) | –
5 | – | – | RNF123 (endogenous) (enzyme, UniProt Q5XPI4 1-1314) MASKGAGMSFSRKSYRLTSDAEKSRVTGIVQEKLLNDYLNRIFSSSEHAPPAATSRKPLNFQNLPEHLDQLLQVDNEEEESQGQVEGRLGPSTVVLDHTGGFEGLLLVDDDLLGVIGHSNFGTIRSTTCVYKGKWLYEVLISSQGLMQIGWCTISCRFNQEEGVGDTHNSYAYDGNRVRKWNVTTTNYGKAWAAGDIVSCLIDLDDGTLSFCLNGVSLGTAFENLSRGLGMAYFPAISLSFKESVAFNFGSRPLRYPVAGYRPLQDPPSADLVRAQRLLGCFRAVLSVELDPVEGRLLDKESSKWRLRGQPTVLLTLAHIFHHFAPLLRKVYLVEAVLMSFLLGIVEKGTPTQAQSVVHQVLDLLWLFMEDYEVQDCLKQLMMSLLRLYRFSPIVPDLGLQIHYLRLTIAILRHEKSRKFLLSNVLFDVLRSVVFFYIKSPLRVEEAGLQELIPTTWWPHCSSREGKESTEMKEETAEERLRRRAYERGCQRLRKRIEVVEELQVQILKLLLDNKDDNGGEASRYIFLTKFRKFLQENASGRGNMPMLCPPEYMVCFLHRLISALRYYWDEYKASNPHASFSEEAYIPPQVFYNGKVDYFDLQRLGGLLSHLRKTLKDDLASKANIVIDPLELQSTAMDDLDEDEEPAPAMAQRPMQALAVGGPLPLPRPGWLSSPTLGRANRFLSTAAVSLMTPRRPLSTSEKVKVRTLSVEQRTREDIEGSHWNEGLLLGRPPEEPEQPLTENSLLEVLDGAVMMYNLSVHQQLGKMVGVSDDVNEYAMALRDTEDKLRRCPKRRKDILAELTKSQKVFSEKLDHLSRRLAWVHATVYSQEKMLDIYWLLRVCLRTIEHGDRTGSLFAFMPEFYLSVAINSYSALKNYFGPVHSMEELPGYEETLTRLAAILAKHFADARIVGTDIRDSLMQALASYVCYPHSLRAVERIPEEQRIAMVRNLLAPYEQRPWAQTNWILVRLWRGCGFGYRYTRLPHLLKTKLEDANLPSLQKPCPSTLLQQHMADLLQQGPDVAPSFLNSVLNQLNWAFSEFIGMIQEIQQAAERLERNFVDSRQLKVCATCFDLSVSLLRVLEMTITLVPEIFLDWTRPTSEMLLRRLAQLLNQVLNRVTAERNLFDRVVTLRLPGLESVDHYPILVAVTGILVQLLVRGPASEREQATSVLLADPCFQLRSICYLLGQPEPPAPGTALPAPDRKRFSLQSYADYISADELAQVEQMLAHLTSASAQAAAASLPTSEEDLCPICYAHPISAVFQPCGHKSCKACINQHLMNNKDCFFCKTTIVSVEDWEKGANTSTTSSAA | binding [3]: binds
6 | – | – | RNF123-FLAG (enzyme, UniProt Q5XPI4 1-1314) MASKGAGMSFSRKSYRLTSDAEKSRVTGIVQEKLLNDYLNRIFSSSEHAPPAATSRKPLNFQNLPEHLDQLLQVDNEEEESQGQVEGRLGPSTVVLDHTGGFEGLLLVDDDLLGVIGHSNFGTIRSTTCVYKGKWLYEVLISSQGLMQIGWCTISCRFNQEEGVGDTHNSYAYDGNRVRKWNVTTTNYGKAWAAGDIVSCLIDLDDGTLSFCLNGVSLGTAFENLSRGLGMAYFPAISLSFKESVAFNFGSRPLRYPVAGYRPLQDPPSADLVRAQRLLGCFRAVLSVELDPVEGRLLDKESSKWRLRGQPTVLLTLAHIFHHFAPLLRKVYLVEAVLMSFLLGIVEKGTPTQAQSVVHQVLDLLWLFMEDYEVQDCLKQLMMSLLRLYRFSPIVPDLGLQIHYLRLTIAILRHEKSRKFLLSNVLFDVLRSVVFFYIKSPLRVEEAGLQELIPTTWWPHCSSREGKESTEMKEETAEERLRRRAYERGCQRLRKRIEVVEELQVQILKLLLDNKDDNGGEASRYIFLTKFRKFLQENASGRGNMPMLCPPEYMVCFLHRLISALRYYWDEYKASNPHASFSEEAYIPPQVFYNGKVDYFDLQRLGGLLSHLRKTLKDDLASKANIVIDPLELQSTAMDDLDEDEEPAPAMAQRPMQALAVGGPLPLPRPGWLSSPTLGRANRFLSTAAVSLMTPRRPLSTSEKVKVRTLSVEQRTREDIEGSHWNEGLLLGRPPEEPEQPLTENSLLEVLDGAVMMYNLSVHQQLGKMVGVSDDVNEYAMALRDTEDKLRRCPKRRKDILAELTKSQKVFSEKLDHLSRRLAWVHATVYSQEKMLDIYWLLRVCLRTIEHGDRTGSLFAFMPEFYLSVAINSYSALKNYFGPVHSMEELPGYEETLTRLAAILAKHFADARIVGTDIRDSLMQALASYVCYPHSLRAVERIPEEQRIAMVRNLLAPYEQRPWAQTNWILVRLWRGCGFGYRYTRLPHLLKTKLEDANLPSLQKPCPSTLLQQHMADLLQQGPDVAPSFLNSVLNQLNWAFSEFIGMIQEIQQAAERLERNFVDSRQLKVCATCFDLSVSLLRVLEMTITLVPEIFLDWTRPTSEMLLRRLAQLLNQVLNRVTAERNLFDRVVTLRLPGLESVDHYPILVAVTGILVQLLVRGPASEREQATSVLLADPCFQLRSICYLLGQPEPPAPGTALPAPDRKRFSLQSYADYISADELAQVEQMLAHLTSASAQAAAASLPTSEEDLCPICYAHPISAVFQPCGHKSCKACINQHLMNNKDCFFCKTTIVSVEDWEKGANTSTTSSAA | binding [4]: binds
